Assay results taken from the supplement of paper PMC8007513.
The other results are listed elsewhere or left out. Most values come without repeats; read them as rough.

System: Saccharomyces cerevisiae BY4743
Assay: growth (OD600) with compound + IPBC relative to untreated control; higher = less growth inhibition
Settings: compound concentration: 133 uM; IPBC concentration: 0.5 ug/ml; 20 h
Procedure: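 NMCCC compounds (133 uM) combined with IPBC (0.5 ug/ml) against Saccharomyces cerevisiae BY4743 in YPD, 96-well plates. Growth was read as OD600 at 20 h and expressed as % of the untreated control. Single pass.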

| SMILES | growth [%] |
| --- | --- |
| CC(C(=O)O)n1c(SCC(=O)N(C)CCOc2ccc(Cl)cc2)nnc1-c1cccs1 (stereo not drawn) + CCCCNC(=O)OCC#CI [3-iodo-2-propynyl butylcarbamate (IPBC)] | 109 |
| Cc1cc(C)n(CCC(=O)NCCN2CCN(c3cc(Cl)ccc3C)CC2)n1 + CCCCNC(=O)OCC#CI [3-iodo-2-propynyl butylcarbamate (IPBC)] | 98.7 |
| CCS(=O)(=O)N1CCc2cc(C(=O)COC(=O)c3cc(Cl)ccc3O)ccc21 + CCCCNC(=O)OCC#CI [3-iodo-2-propynyl butylcarbamate (IPBC)] | 92.9 |
| Cc1nc(O)c(C#N)c(C)c1CCC(=O)N(C)Cc1ccc(OC(F)F)cc1 + CCCCNC(=O)OCC#CI [3-iodo-2-propynyl butylcarbamate (IPBC)] | 113 |
| O=C(CCn1c(=O)oc2ccccc21)OC1CCCCC1=O (stereo not drawn) + CCCCNC(=O)OCC#CI [3-iodo-2-propynyl butylcarbamate (IPBC)] | 99.8 |
| CC(C)(C)NS(=O)(=O)c1ccc(C(=O)NCC(=O)N2CCc3ccccc32)cc1 + CCCCNC(=O)OCC#CI [3-iodo-2-propynyl butylcarbamate (IPBC)] | 98.3 |
| N#Cc1ccc(CSc2ccc(S(=O)(=O)N3CCCC3)cn2)cc1 + CCCCNC(=O)OCC#CI [3-iodo-2-propynyl butylcarbamate (IPBC)] | 85.3 |
| Cc1ccc(-c2nnc(SC(C)C(=O)NC(=O)NC(C)(C)C)o2)cc1C (stereo not drawn) + CCCCNC(=O)OCC#CI [3-iodo-2-propynyl butylcarbamate (IPBC)] | 89.8 |
